These are yes or no findings as the source states them, for the method shown. In cells and extracts the contact can be indirect. Some entries that bind do so weakly or less than the wild type. For some assays here: Sequences can lack the tags named with a protein. Values belong to the binder of their own block, whether it stands above or below them.
Tests used:
[1] = molecular target: T1, Caveolin-1 (mouse (endogenous in primary alveolar macrophages of BALB/c mice)) (UniProt P49817); test: co-IP; RIPA lysates of primary mouse alveolar macrophages, immunoprecipitated with anti-Cav-1 (protein A/G magnetic beads, 4 °C), immunoblotted with anti-HO-1; cells pretreated for 6 h with or without CSD peptides, then LPS and hemin for 16 h
T1 sequence: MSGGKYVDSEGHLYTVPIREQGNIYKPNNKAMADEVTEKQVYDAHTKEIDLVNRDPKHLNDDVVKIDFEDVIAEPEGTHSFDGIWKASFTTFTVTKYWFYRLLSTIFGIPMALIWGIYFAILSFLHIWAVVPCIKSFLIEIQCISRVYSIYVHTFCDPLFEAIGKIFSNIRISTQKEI

[2] = molecular target: T2, Heme oxygenase-1 (mouse (endogenous in primary alveolar macrophages of BALB/c mice)) (UniProt P14901); test: co-IP; the same co-IP (anti-Cav-1, blot anti-HO-1) read for the synthetic AP-CSD peptide given to the living alveolar macrophages for 6 h before LPS and hemin; loss of the HO-1/Cav-1 co-precipitate is the read-out; only the binder purified
T2 sequence: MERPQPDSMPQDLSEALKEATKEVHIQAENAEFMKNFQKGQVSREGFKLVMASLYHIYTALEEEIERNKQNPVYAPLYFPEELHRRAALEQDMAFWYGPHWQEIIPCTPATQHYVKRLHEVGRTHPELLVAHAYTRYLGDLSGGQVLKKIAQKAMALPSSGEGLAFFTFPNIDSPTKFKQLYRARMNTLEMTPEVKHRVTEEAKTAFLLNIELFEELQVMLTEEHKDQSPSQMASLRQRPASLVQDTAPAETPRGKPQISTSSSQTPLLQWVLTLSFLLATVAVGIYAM

binding [1]: binds
B1: Heme oxygenase-1 (enzyme, UniProt P14901 1-289)
chain: T2 sequence

binding [2]: binds
Binder: RQIKIWFQNRRMKWKKDGIWKASFTTFTVTKYWFYR

— PMC5522314
